Laboratory results from PMC7562719, “Discovery of a CNS penetrant small molecule SMN2 splicing modulator with improved tolerability for spinal muscular atrophy” (Scientific Reports, 2020).
Marks after values point to notes of the source that are not given here.

System: TK6 cells
Settings: positive control 0.01 µg/mL (0.03 µM), 24 h -S9 mix
Protocol: These articles have been recommended for use in the OECD test guideline (Test No. 487)[49]. For metabolic activation, pre-cultured TK6 cells with the culture medium were supplemented with Sprague–Dawley rat liver mix (S9 mix, IEDA TRADING CORPORATION, Japan) at 3.33 vol%. Then, compound was mixed with the cell suspension and treated under the following treatment conditions: • Short-term treatment for 3 h without S9 mix, followed by a 21-h culture (−S9 mix assay), • Short-term treatment for 3 h with S9 mix, followed by a 21-h culture (+S9 mix assay), or • Continuous treatment for 24 h without S9 mix (24-h assay). For treatment conditions 1 and 2, the cells in each well were centrifuged after the 3-h treatment, the supernatants were discarded, and the cells were washed twice with culture medium. The cells were further cultured with fresh culture medium for 21 h. The compound-treated cells were examined by the unaided eye for precipitation of compound at the start and end of treatment. After treatment, the rest of each cell suspension was centrifuged and then the cells were suspended in a 0.075 mol/L KCl solution at room temperature for 10 min. Then, 25 vol% acetic acid containing methanol was added and the centrifuged cells were fixed. The fixed cells were resuspended in a small amount of 3 vol% acetic acid containing methanol, which was changed two times by centrifugation. Finally, a drop of the cell suspension was transferred onto a slide and dried at room temperature. The slides were stained at room temperature in a 3 vol% Giemsa solution (Merck KGaA) diluted with Sörensen phosphate buffer (1/15 mol/L, pH 6.8, Muto Pure Chemicals Co. Ltd.). Four slides per dose (2 slides per well) were prepared. Each slide was coded randomly. […] To perform scoring for compound and negative control groups, the number of cells in the suspensions was counted using a Coulter Counter (Z2; Beckman Coulter, Inc.). The positive control groups were not determined. […] The cell number per 1 mL at each culture was calculated by the following formula. […]
The population doubling (PD) and relative population doubling (RPD) at each concentration was calculated by the following formula. […]
RPD%=PD of the compound-treated group/PD of the negative control group×100 For the treated groups, the 3 consecutive concentrations were selected as follows. […] For all concentrations, 4000 mononuclear cells with cytoplasm were analyzed and the number of cells with micronucleus (micronuclei) was counted using a microscope (× 600). […] Each investigator scored 1000 cells for the frequency of micronucleated cells. […] A cell having one or more micronuclei was recorded as a micronucleated cell.

## CN[C@H]1CCc2cc(OC)c(OC)c(OC)c2-c2ccc(OC)c(=O)cc21 [COL, colcemid, reference compound]
  Micronucleated cells Well 1: 45
  Micronucleated cells Well 2: 51
Counted in 4000 cells
  Micronucleated cells Total: 96
P < 0.01
  Micronucleated cells (%): (2.4) ** %
